Binding data for four molecules are collected here from paper PMC11385326.

Amino acid sequences for entries named in this document (tags omitted).
UniProt Q14677: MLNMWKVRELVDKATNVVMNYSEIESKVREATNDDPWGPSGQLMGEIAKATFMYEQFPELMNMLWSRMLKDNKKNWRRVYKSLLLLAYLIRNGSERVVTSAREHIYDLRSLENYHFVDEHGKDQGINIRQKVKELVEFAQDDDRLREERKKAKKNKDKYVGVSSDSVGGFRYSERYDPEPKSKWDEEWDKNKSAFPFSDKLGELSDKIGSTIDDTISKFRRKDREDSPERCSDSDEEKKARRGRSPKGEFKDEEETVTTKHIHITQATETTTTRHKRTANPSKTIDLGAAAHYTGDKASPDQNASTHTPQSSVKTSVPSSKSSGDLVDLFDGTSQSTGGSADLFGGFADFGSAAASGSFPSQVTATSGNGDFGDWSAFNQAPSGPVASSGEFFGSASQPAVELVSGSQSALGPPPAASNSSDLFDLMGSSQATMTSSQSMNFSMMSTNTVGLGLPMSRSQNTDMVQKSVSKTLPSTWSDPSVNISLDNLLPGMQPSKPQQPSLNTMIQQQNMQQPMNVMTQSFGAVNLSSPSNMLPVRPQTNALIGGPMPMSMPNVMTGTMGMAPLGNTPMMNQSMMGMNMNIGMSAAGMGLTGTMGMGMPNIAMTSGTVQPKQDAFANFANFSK
UniProt Q04656: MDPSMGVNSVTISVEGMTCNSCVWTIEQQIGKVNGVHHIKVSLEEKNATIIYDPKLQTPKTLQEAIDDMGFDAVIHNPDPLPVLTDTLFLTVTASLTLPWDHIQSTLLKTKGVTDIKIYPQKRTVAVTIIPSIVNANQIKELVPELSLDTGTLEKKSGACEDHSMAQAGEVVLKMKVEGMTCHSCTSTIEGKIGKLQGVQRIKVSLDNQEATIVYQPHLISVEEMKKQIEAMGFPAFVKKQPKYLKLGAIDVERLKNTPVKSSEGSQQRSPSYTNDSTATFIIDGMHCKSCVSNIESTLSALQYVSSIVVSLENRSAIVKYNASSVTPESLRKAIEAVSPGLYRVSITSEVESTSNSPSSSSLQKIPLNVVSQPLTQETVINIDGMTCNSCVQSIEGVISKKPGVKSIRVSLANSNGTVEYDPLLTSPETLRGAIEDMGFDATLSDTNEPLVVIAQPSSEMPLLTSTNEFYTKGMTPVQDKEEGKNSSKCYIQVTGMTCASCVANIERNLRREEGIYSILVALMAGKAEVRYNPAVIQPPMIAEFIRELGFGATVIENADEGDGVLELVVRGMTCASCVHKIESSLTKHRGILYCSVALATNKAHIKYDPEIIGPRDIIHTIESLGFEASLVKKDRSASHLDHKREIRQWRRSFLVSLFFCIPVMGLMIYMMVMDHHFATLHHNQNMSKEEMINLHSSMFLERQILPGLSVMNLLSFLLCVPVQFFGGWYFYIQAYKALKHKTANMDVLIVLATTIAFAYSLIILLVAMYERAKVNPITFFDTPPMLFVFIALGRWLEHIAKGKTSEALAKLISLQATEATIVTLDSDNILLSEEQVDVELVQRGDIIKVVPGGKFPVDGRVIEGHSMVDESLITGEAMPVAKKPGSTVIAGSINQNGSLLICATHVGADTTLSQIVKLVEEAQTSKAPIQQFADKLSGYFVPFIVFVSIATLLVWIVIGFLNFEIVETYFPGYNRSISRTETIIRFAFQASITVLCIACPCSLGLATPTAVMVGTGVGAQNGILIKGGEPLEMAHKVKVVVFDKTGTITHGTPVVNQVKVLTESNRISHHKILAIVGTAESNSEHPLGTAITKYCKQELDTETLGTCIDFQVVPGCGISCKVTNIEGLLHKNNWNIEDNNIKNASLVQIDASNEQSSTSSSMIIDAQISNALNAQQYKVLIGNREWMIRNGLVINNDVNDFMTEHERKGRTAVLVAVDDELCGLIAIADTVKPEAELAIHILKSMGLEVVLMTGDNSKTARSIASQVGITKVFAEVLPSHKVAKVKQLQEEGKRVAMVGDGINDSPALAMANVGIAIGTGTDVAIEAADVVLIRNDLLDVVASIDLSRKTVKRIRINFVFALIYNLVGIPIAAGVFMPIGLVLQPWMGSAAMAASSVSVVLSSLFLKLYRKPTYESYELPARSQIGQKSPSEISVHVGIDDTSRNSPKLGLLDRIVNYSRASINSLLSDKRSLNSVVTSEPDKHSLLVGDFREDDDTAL

Results are given in words; binding and its absence hold for the method and conditions named. Binding seen in cells or lysates may run through a third protein. A yes stands for co-enrichment or nearness to the bait. Other partners may have been found. Sequences can lack the tags named with a protein.

Sequences and labels used below:
B1: GGA3 (protein, UniProt Q9NZ52 1-723)
chain: MAEAEGESLESWLNKATNPSNRQEDWEYIIGFCDQINKELEGPQIAVRLLAHKIQSPQEWEALQALTVLEACMKNCGRRFHNEVGKFRFLNELIKVVSPKYLGDRVSEKVKTKVIELLYSWTMALPEEAKIKDAYHMLKRQGIVQSDPPIPVDRTLIPSPPPRPKNPVFDDEEKSKLLAKLLKSKNPDDLQEANKLIKSMVKEDEARIQKVTKRLHTLEEVNNNVRLLSEMLLHYSQEDSSDGDRELMKELFDQCENKRRTLFKLASETEDNDNSLGDILQASDNLSRVINSYKTIIEGQVINGEVATLTLPDSEGNSQCSNQGTLIDLAELDTTNSLSSVLAPAPTPPSSGIPILPPPPQASGPPRSRSSSQAEATLGPSSTSNALSWLDEELLCLGLADPAPNVPPKESAGNSQWHLLQREQSDLDFFSPRPGTAACGASDAPLLQPSAPSSSSSQAPLPPPFPAPVVPASVPAPSAGSSLFSTGVAPALAPKVEPAVPGHHGLALGNSALHHLDALDQLLEEAKVTSGLVKPTTSPLIPTTTPARPLLPFSTGPGSPLFQPLSFQSQGSPPKGPELSLASIHVPLESIKPSSALPVTAYDKNGFRILFHFAKECPPGRPDVLVVVVSMLNTAPLPVKSIVLQAAVPKSMKVKLQPPSGTELSPFSPIQPPAAITQVMLLANPLKEKVRLRYKLTFALGEQLSTEVGEVDQFPPVEQWGNL
B2: sodium-bicarbonate co-transporter NBCn1 (protein, UniProt Q9Y6M7 1-1214)
chain: MERFRLEKKLPGPDEEAVVDLGKTSSTVNTKFEKEELESHRAVYIGVHVPFSKESRRRHRHRGHKHHHRRRKDKESDKEDGRESPSYDTPSQRVQFILGTEDDDEEHIPHDLFTEMDELCYRDGEEYEWKETARWLKFEEDVEDGGDRWSKPYVATLSLHSLFELRSCILNGTVMLDMRASTLDEIADMVLDNMIASGQLDESIRENVREALLKRHHHQNEKRFTSRIPLVRSFADIGKKHSDPHLLERNGEGLSASRHSLRTGLSASNLSLRGESPLSLLLGHLLPSSRAGTPAGSRCTTPVPTPQNSPPSSPSISRLTSRSSQESQRQAPELLVSPASDDIPTVVIHPPEEDLEAALKGEEQKNEENVDLTPGILASPQSAPGNLDNSKSGEIKGNGSGGSRENSTVDFSKVDMNFMRKIPTGAEASNVLVGEVDFLERPIIAFVRLAPAVLLTGLTEVPVPTRFLFLLLGPAGKAPQYHEIGRSIATLMTDEIFHDVAYKAKDRNDLLSGIDEFLDQVTVLPPGEWDPSIRIEPPKSVPSQEKRKIPVFHNGSTPTLGETPKEAAHHAGPELQRTGRLFGGLILDIKRKAPFFLSDFKDALSLQCLASILFLYCACMSPVITFGGLLGEATEGRISAIESLFGASLTGIAYSLFAGQPLTILGSTGPVLVFEKILYKFCRDYQLSYLSLRTSIGLWTSFLCIVLVATDASSLVCYITRFTEEAFAALICIIFIYEALEKLFDLGETYAFNMHNNLDKLTSYSCVCTEPPNPSNETLAQWKKDNITAHNISWRNLTVSECKKLRGVFLGSACGHHGPYIPDVLFWCVILFFTTFFLSSFLKQFKTKRYFPTKVRSTISDFAVFLTIVIMVTIDYLVGVPSPKLHVPEKFEPTHPERGWIISPLGDNPWWTLLIAAIPALLCTILIFMDQQITAVIINRKEHKLKKGAGYHLDLLMVGVMLGVCSVMGLPWFVAATVLSISHVNSLKVESECSAPGEQPKFLGIREQRVTGLMIFILMGLSVFMTSVLKFIPMPVLYGVFLYMGVSSLKGIQLFDRIKLFGMPAKHQPDLIYLRYVPLWKVHIFTVIQLTCLVLLWVIKVSAAAVVFPMMVLALVFVRKLMDLCFTKRELSWLDDLMPESKKKKEDDKKKKEKEEAERMLQDDDDTVHLPFEGGSLLQIPVKALKYSPDKPVSVKISFEDEPRKKYVDAETSL

This experiment deals with T1, AP1µA^EN–TurboID–V5 (human (endogenous in HeLa)) (UniProt Q9BXS5).
T1 sequence: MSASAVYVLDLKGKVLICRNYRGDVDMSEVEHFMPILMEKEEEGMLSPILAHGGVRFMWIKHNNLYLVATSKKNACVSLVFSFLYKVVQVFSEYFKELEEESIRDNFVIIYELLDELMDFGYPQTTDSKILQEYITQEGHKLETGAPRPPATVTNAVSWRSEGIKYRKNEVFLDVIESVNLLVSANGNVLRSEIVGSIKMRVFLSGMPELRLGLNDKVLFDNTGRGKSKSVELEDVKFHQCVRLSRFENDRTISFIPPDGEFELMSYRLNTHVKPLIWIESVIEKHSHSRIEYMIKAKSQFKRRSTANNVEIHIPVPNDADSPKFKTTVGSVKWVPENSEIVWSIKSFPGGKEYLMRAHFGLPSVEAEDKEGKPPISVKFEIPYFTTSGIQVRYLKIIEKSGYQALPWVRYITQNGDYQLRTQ
Nature of the experiment: proximity labelling; TurboID fused to AP1µA in living HeLa cells (knock-in or transient overexpression), 50 µM biotin for 24 h; RIPA lysate, streptavidin magnetic beads, on-bead trypsin digest, label-free quantitative LC-MS; enriched: log2 fold change >1 and P<0.05 against cytosolic TurboID–V5 and biotin-treated WT HeLa; three replicates.
On to EpsinR (from UniProt Q14677 1-625), for which the binding entry is on record as “binds”.

With ATP7A (from UniProt Q04656 1-1500), the binding result was “binds”.

Regarding B1, the binding result is on record as “binds”.

As to B2, the binding entry is “binds”.
